Drawing on PubChem BioAssay AID248 (DTP/NCI, 2004), this text covers survivor count and T/C for 29 compounds.

The list is a part of this screen's results and no random one: it gathers tests that were run many times, whatever their T/C, doses with no T/C, and many T/C values between a quarter and a half above the control. Further doses and runs are listed elsewhere. T/C is the treated group as % of the vehicle group. Some doses have a count of surviving animals in place of a T/C: the source holds a T/C of zero for them, seemingly a mark for toxic or unscored doses. Some survivor counts are full or nearly so, which does not show that the dose was tolerated: the source hardly ever lists a survival T/C far under the control, and the zero likely stands for such cases as well. Counts of survivors are from the toxicity check (mostly the fifth day) where no day follows; animals may have died later. Schedules are NCI's codes, read here as Q, the interval in days (D) or hours (H), X, the number of doses. Some entries hold several experiments; the results are listed from low to high. Some structures stand for samples that the source files as different forms (salt, stereo form or complex); doses refer to the form tested. For survival time, the PubChem record calls one and a half times the control and up active, and a quarter to a half above the control has no call in these data; cut-offs in other NCI protocols can differ. Some T/C values are followed by the survivors on the day toxicity was checked, most often the fifth; where none is given, no animal had died by that day. Some schedules carry Z or #; the key to these is not given.

The test has as its system L1210 leukemia ip in BDF1 mice, survival T/C. The experiment in a line: NCI In Vivo Anticancer Drug Screen. Data for tumor model L1210 Leukemia (intraperitoneal) in B6D2F1 (BDF1) mice. Particulars: higher T/C = longer survival.
Setting [1] is: T/C endpoint: mean survival time, dose: 100.0 mg/kg/injection, schedule: Q04DX003 (ip), vehicle: saline.
The mark [2] stands for this setting: T/C endpoint: mean survival time, dose: 400.0 mg/kg/injection, schedule: Q01DX009 (ip), vehicle: saline.
[3] abbreviates: T/C endpoint: mean survival time, dose: 400.0 mg/kg/injection, schedule: Q04DX003 (ip), vehicle: saline.
Setting [4] is: T/C endpoint: mean survival time, dose: 200.0 mg/kg/injection, schedule: Q01DX009 (ip), vehicle: saline.
Setting [5] is: T/C endpoint: mean survival time, dose: 400.0 mg/kg/injection, schedule: Q04DX003 (ip), vehicle: Klucel (hydroxypropylcellulose) (HPC).
Setting [6] is: T/C endpoint: mean survival time, dose: 400.0 mg/kg/injection, schedule: Q01DX009 (ip), vehicle: Klucel (hydroxypropylcellulose) (HPC).
[7] abbreviates: T/C endpoint: mean survival time, dose: 200.0 mg/kg/injection, schedule: Q04DX002 (ip), vehicle: Klucel (hydroxypropylcellulose) (HPC).
Where [8] appears, read: T/C endpoint: mean survival time, dose: 200.0 mg/kg/injection, schedule: Q04DX003 (ip), vehicle: saline.

Consider `[O]=[Cr](=[O])([OH])[O][Cr](=[O])(=[O])[OH]`, for which the survivor count is 4 of 6 (T/C endpoint: mean survival time, dose: 25.0 mg/kg/injection, schedule: Q01DX009 (ip), vehicle: saline); 0 of 6 (T/C endpoint: mean survival time, dose: 50.0 mg/kg/injection, schedule: Q04DX003 (ip), vehicle: saline); 0 of 6 under setting [1].
Turning to `CN(C)CCC(C(=O)N(C)C)(c1ccccc1)c1ccccc1`, the survivor count (T/C endpoint: mean survival time, dose: 300.0 mg/kg/injection, schedule: Q01DX001 (ip), vehicle: carboxymethylcellulose (CMC)) is on record as 0 of 6.
For `Cc1ccc(Nc2ccc(Nc3ccc(C)cc3)c3c2C(=O)c2c(O)ccc(O)c2C3=O)cc1`, the survivor count (T/C endpoint: mean survival time, dose: 100.0 mg/kg/injection, schedule: Q01DX001 (ip), vehicle: Klucel (hydroxypropylcellulose) (HPC)) was 3 of 3.
Consider `N#CCN1CCOCC1`, for which the survivor count under setting [2] is 0 of 6 and the survivor count under setting [3] was 4 of 6.
Consider `CC1(C)Cc2cccc(C(O)(CCN3CCCCC3)c3ccccc3)c2O1` (configuration not stated), for which the survivor count was 1 of 6 (T/C endpoint: mean survival time, dose: 200.0 mg/kg/injection, schedule: Q01DX001 (ip), vehicle: Klucel (hydroxypropylcellulose) (HPC)) and 0 of 6 (T/C endpoint: mean survival time, dose: 400.0 mg/kg/injection, schedule: Q01DX001 (ip), vehicle: Klucel (hydroxypropylcellulose) (HPC)).
Consider `CN=Cc1ccccc1O.CN=Cc1ccccc1O.[Cu+2]`, for which the survivor count (T/C endpoint: mean survival time, dose: 75.0 mg/kg/injection, schedule: Q04DX003 (ip), vehicle: acetone) is listed as 2 of 6; the survivor count (T/C endpoint: mean survival time, dose: 150.0 mg/kg/injection, schedule: Q01DX001 (ip), vehicle: acetone) is listed as 0 of 6; the survivor count (T/C endpoint: mean survival time, dose: 300.0 mg/kg/injection, schedule: Q01DX001 (ip), vehicle: acetone) is reported as 0 of 6.
As to `O=S(=O)(NC(=S)c1ccccc1)c1ccccc1`, under setting [4], the survivor count was 3 of 3.
Turning to `COC(=O)C(Br)(Br)C(=O)OC`, the survivor count is on record as 1 of 3 (T/C endpoint: mean survival time, dose: 100.0 mg/kg/injection, schedule: Q04DX002 (ip), vehicle: saline with Tween-80); 0 of 3 (T/C endpoint: mean survival time, dose: 200.0 mg/kg/injection, schedule: Q04DX002 (ip), vehicle: saline with Tween-80); 0 of 3 (T/C endpoint: mean survival time, dose: 400.0 mg/kg/injection, schedule: Q04DX002 (ip), vehicle: saline with Tween-80).
With `Clc1ccc2nc(Cl)c(Cl)nc2c1`, the survivor count under setting [5] is 6 of 6.
Consider `N#Cc1cc2c3ccccc3ncc2c2ccccc12`, for which the survivor count is on record as 6 of 6 (T/C endpoint: mean survival time, dose: 100.0 mg/kg/injection, schedule: Q01DX009 (ip), vehicle: Klucel (hydroxypropylcellulose) (HPC)) and 5 of 6 under setting [6].
As for `CC(=O)Oc1c2ccccc2cc2ccccc12`, under setting [7], the T/C was 144 % of control.
In the case of `Cc1ccc(N2C(=O)C=CC2=O)cc1`, the survivor count reads like this: under setting [1], 0 of 6; under setting [8], 1 of 6; under setting [3], 0 of 6.
With `CCOC(=O)NCc1cnccn1`, under setting [3], the T/C was 132 % of control.
`COc1ccc(OC)c(/C=C(/C)[N+](=O)[O-])c1`: under setting [5], the survivor count was 1 of 6.
Consider `O=C1C2C(C(=O)N1c1ccc([N+](=O)[O-])cc1)C1c3ccccc3C2C2CCCCN21` (configuration not stated), for which the survivor count under setting [4] is given as 0 of 6.
For `O=C(O)c1cc2ccccc2c2cc(Br)ccc12`, the survivor count (T/C endpoint: mean survival time, dose: 400.0 mg/kg/injection, schedule: Q01DX009 (ip), vehicle: saline sonified) is 0 of 6.
On to `[Cl][Hg][S]C1CCCC1`, for which the survivor count is on record as 2 of 6 (T/C endpoint: mean survival time, dose: 40.0 mg/kg/injection, schedule: Q01DX001 (ip), vehicle: saline); 0 of 6 (T/C endpoint: mean survival time, dose: 80.0 mg/kg/injection, schedule: Q01DX001 (ip), vehicle: saline); 0 of 6 (T/C endpoint: mean survival time, dose: 100.0 mg/kg/injection, schedule: Q01DX001 (ip), vehicle: saline); 0 of 6 (T/C endpoint: mean survival time, dose: 200.0 mg/kg/injection, schedule: Q01DX001 (ip), vehicle: saline); 0 of 6 (T/C endpoint: mean survival time, dose: 400.0 mg/kg/injection, schedule: Q01DX001 (ip), vehicle: saline).
As to `NC(=O)C(=O)N/N=C/c1ccc2c(c1)CCC2`, the survivor count is, setting by setting: (T/C endpoint: mean survival time, dose: 100.0 mg/kg/injection, schedule: Q04DX003 (ip), vehicle: saline with Tween-80) 6 of 6; (T/C endpoint: mean survival time, dose: 200.0 mg/kg/injection, schedule: Q04DX003 (ip), vehicle: saline with Tween-80) 6 of 6; (T/C endpoint: mean survival time, dose: 400.0 mg/kg/injection, schedule: Q04DX003 (ip), vehicle: saline with Tween-80) 6 of 6.
With `CCOC(=N)c1cn(C2OC(CO)C(O)C2O)c2ncnc(N)c12` (configuration not stated), the T/C is 127 % of control (T/C endpoint: mean survival time, dose: 0.4 mg/kg/injection, schedule: Q01DX009 (ip), vehicle: saline with Tween-80); 125 and 126 % of control (T/C endpoint: mean survival time, dose: 0.4 mg/kg/injection, schedule: Q01DX009 (ip), vehicle: saline). The survivor count by setting is: (T/C endpoint: mean survival time, dose: 1.3 mg/kg/injection, schedule: Q01DX009 (ip), vehicle: saline) 3 of 6; (T/C endpoint: mean survival time, dose: 2.0 mg/kg/injection, schedule: Q01DX009 (ip), vehicle: saline) 5 of 6; (T/C endpoint: mean survival time, dose: 3.0 mg/kg/injection, schedule: Q01DX009 (ip), vehicle: saline) 6 of 6; (T/C endpoint: mean survival time, dose: 5.0 mg/kg/injection, schedule: Q01DX009 (ip), vehicle: saline) 4 of 6 and 6 of 6; (T/C endpoint: mean survival time, dose: 7.0 mg/kg/injection, schedule: Q01DX009 (ip), vehicle: saline) 2 of 6; (T/C endpoint: mean survival time, dose: 10.0 mg/kg/injection, schedule: Q01DX009 (ip), vehicle: saline) 1 of 6. The survivor count (T/C endpoint: mean survival time, dose: 15.0 mg/kg/injection, schedule: Q01DX009 (ip), vehicle: saline) is on record as 0 of 6.
On to `N#C/C(=C\c1ccco1)C1CCCCC1`, for which, where the note is “T/C endpoint: mean survival time, dose: 400.0 mg/kg/injection, schedule: Q04DX002 (ip), vehicle: other”, the survivor count is given as 1 of 3.
Regarding `CC(=O)OC1COC(NC(=O)NNc2ccccc2)C(OC(C)=O)C1OC(C)=O` (configuration not stated), the survivor count under setting [2] is recorded as 6 of 6.
As to `CN(C)C(=O)c1cc(NC(=O)Nc2ccc(C3=NCCN3)cc2)cc(NC(=O)Nc2ccc(C3=NCCN3)cc2)c1`, the T/C (T/C endpoint: mean survival time, dose: 120.0 mg/kg/injection, schedule: Q01DX Z (ip), vehicle: saline) is 136 % of control [5 of 6 alive].
Regarding `O=c1cc(O)ccn1CCc1cccs1`, the survivor count (T/C endpoint: mean survival time, dose: 400.0 mg/kg/injection, schedule: Q01DX009 (ip), vehicle: saline with Tween-80) is 2 of 6.
In the case of `NCCCCCc1ccccc1`, the survivor count is reported as 3 of 6 under setting [1] and 0 of 6 under setting [8].
As to `CCC(=O)c1cc2c(c3c1CCCC3)CCCC2`, the survivor count is on record as 3 of 3 (T/C endpoint: mean survival time, dose: 50.0 mg/kg/injection, schedule: Q01DX009 (ip), vehicle: other) and 3 of 3 (T/C endpoint: mean survival time, dose: 100.0 mg/kg/injection, schedule: Q01DX009 (ip), vehicle: other).
Consider `Cc1cc(NCCCCCCCNc2cc(C)nc3cc(N)ccc23)c2ccc(N)cc2n1`, for which the T/C (T/C endpoint: median survival time, dose: 3.12 mg/kg/injection, schedule: Q01DX009 (ip), vehicle: water) is 135 % of control.
Take `COc1cc(OC)c(OC)cc1/C=C/c1cc[n+](C)c2ccccc12`: the survivor count by setting is: under setting [7], 1 of 3; (T/C endpoint: mean survival time, dose: 400.0 mg/kg/injection, schedule: Q04DX002 (ip), vehicle: Klucel (hydroxypropylcellulose) (HPC)) 0 of 3.
With `c1ccc(C[n+]2cccc3ccccc32)cc1`, the survivor count (T/C endpoint: mean survival time, dose: 100.0 mg/kg/injection, schedule: Q01DX001 (ip), vehicle: saline with Tween-80) is 0 of 6; the survivor count (T/C endpoint: mean survival time, dose: 100.0 mg/kg/injection, schedule: Q04DX002 (ip), vehicle: saline) was 1 of 3; the survivor count (T/C endpoint: mean survival time, dose: 200.0 mg/kg/injection, schedule: Q01DX001 (ip), vehicle: saline with Tween-80) is recorded as 0 of 6; the survivor count (T/C endpoint: mean survival time, dose: 200.0 mg/kg/injection, schedule: Q04DX002 (ip), vehicle: saline) is recorded as 0 of 3; the survivor count (T/C endpoint: mean survival time, dose: 400.0 mg/kg/injection, schedule: Q01DX001 (ip), vehicle: saline with Tween-80) is recorded as 0 of 6; the survivor count (T/C endpoint: mean survival time, dose: 400.0 mg/kg/injection, schedule: Q04DX002 (ip), vehicle: saline) is on record as 0 of 3.
With `CCCCCOc1ccc(C=Nc2ccc(C)cc2)cc1`, the survivor count under setting [6] is listed as 1 of 6.
